Reference: PMC13486833
Results are given in words; binding and its absence hold for the method and conditions named. Some entries that bind do so weakly or less than the wild type.

Protein sequences, listed by entry. Tags and fused reporters are not part of them. Lines headed by an entry give the natural chain unless they say otherwise; changes in a name come on top. Residues count along the entry.
UniProt Q15109, residues 23-342: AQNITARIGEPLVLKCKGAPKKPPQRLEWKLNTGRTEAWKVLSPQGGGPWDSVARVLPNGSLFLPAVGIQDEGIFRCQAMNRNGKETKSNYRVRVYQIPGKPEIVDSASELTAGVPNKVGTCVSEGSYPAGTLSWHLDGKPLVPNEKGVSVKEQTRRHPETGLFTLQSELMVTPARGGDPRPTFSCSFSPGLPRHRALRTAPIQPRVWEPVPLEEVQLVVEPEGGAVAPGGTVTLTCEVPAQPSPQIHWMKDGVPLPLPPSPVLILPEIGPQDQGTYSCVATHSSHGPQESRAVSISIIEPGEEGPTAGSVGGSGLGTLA
UniProt P09429: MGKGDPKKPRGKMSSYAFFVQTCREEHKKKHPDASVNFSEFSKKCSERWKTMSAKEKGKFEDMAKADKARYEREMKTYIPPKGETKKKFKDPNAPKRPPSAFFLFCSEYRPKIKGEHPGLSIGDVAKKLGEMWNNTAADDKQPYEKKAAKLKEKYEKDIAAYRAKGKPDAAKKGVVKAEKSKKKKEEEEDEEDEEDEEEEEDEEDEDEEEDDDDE

Experiments:
RAGE-Fc chimera protein = RAGE-Fc chimera protein (UniProt Q15109); assay: BLI; RAGE-Fc (15 μg/mL) immobilised on anti-IgG (AHC) biosensors; HMGB1 constructs 0–25 μM in solution; 200 s association/dissociation; both purified
DS-HMGB1 1–214 (human) = target: DS-HMGB1 1–214 (human (by the printed UniProt entry P09429)) (UniProt P09429); assay: ELISA; solid-phase equilibrium (hybrid) ELISA: HMGB1 constructs coated at 40 nM in PBS (+0.5 mM TCEP for FR constructs); RAGE-Fc 0–640 nM in 10% BSA/PBS, 2 h, 4°C; anti-Human IgG HRP; both purified
FR-HMGB1 1–214 (human) = target: FR-HMGB1 1–214 (human (by the printed UniProt entry P09429)) (UniProt P09429); assay: as above

Row | binding (RAGE-Fc chimera protein) | binding (DS-HMGB1 1–214 (human)) | binding (FR-HMGB1 1–214 (human)) | Substance
1 | binds |  |  | DS-HMGB1 1–214 (from UniProt P09429 1-215)
2 |  | binds | binds | RAGE-Fc chimera protein (from UniProt Q15109 23-342) (Fc fusion)
3 | binds |  |  | FR-HMGB1 1–214 (from UniProt P09429 1-215)
